{"source": "patent US12017992B2", "about": "“Compounds for modulating mitochondrial function” (Mayo Foundation for Medical Education and Research, priority 2015, dated 2024)", "tested_on": "Complex I", "assay": "Complex I activity in isolated mitochondria from mouse brain", "assay_type": "biochemical", "details": "isolated mouse brain mitochondria (40 μg)", "note": "Some of these results come from one statement about several compounds together.", "data": [{"compound": "Cc1cccc(O[C@@H]2CCC[C@H](C(C)CNCc3ccncc3)C2)c1", "note": "(relative stereo) [Compound C458, cis-(N-(pyridin-4-ylmethyl)-2-(3-(m-tolyloxy)cyclohexyl)propan-1-amine)]", "values": [{"measurement": "inhibition of Complex I activity", "result": "20 to 30", "unit": "%"}]}]}
